Laboratory results taken from publication PMC6269477.
Results are given in words; binding and its absence hold for the method and conditions named. Binding seen in cells or lysates may run through a third protein.

Biological target: ZipA (endogenous) (E. coli (endogenous in BW25113)) (UniProt P77173)
Assay: cross-linking + co-IP; wild-type BW25113 cells cross-linked with DSP; membrane extract (1% Triton X-100, 1 M NaCl) precipitated with antibodies against PBP1A, PBP1B, PBP3 or ZipA on protein G agarose; cross-link reversed, ZipA or FtsN detected by western blot

binding: no binding
B1: FtsN (endogenous) (protein, UniProt P29131 1-319)
chain: MAQRDYVRRSQPAPSRRKKSTSRKKQRNLPAVSPAMVAIAAAVLVTFIGGLYFITHHKKEESETLQSQKVTGNGLPPKPEERWRYIKELESRQPGVRAPTEPSAGGEVKTPEQLTPEQRQLLEQMQADMRQQPTQLVEVPWNEQTPEQRQQTLQRQRQAQQLAEQQRLAQQSRTTEQSWQQQTRTSQAAPVQAQPRQSKPASSQQPYQDLLQTPAHTTAQSKPQQAAPVARAADAPKPTAEKKDERRWMVQCGSFRGAEQAETVRAQLAFEGFDSKITTNNGWNRVVIGPVKGKENADSTLNRLKMAGHTNCIRLAAGG
